Laboratory results from PMC9785712 (2022).
Some peptides are written in HELM: one residue between dots, names in brackets for other building blocks, links after the first $.

Experiment: peptide made by a vendor
Settings: whole synthesis

Substance: PEPTIDE1{I.M.A.V.L.A.I.V.L}$$$$V2.0
- outcome: IMAVLAIVL could not be synthesized due to the presence of too many hydrophobic amino acid residues
